# Data reported in the supplement of paper PMC6411743.
# Chains of the proteins cited; added tags and fusions are not shown. Lines headed by an entry give the natural chain unless they say otherwise; changes in a name come on top.
# UniProt Q8IYL3: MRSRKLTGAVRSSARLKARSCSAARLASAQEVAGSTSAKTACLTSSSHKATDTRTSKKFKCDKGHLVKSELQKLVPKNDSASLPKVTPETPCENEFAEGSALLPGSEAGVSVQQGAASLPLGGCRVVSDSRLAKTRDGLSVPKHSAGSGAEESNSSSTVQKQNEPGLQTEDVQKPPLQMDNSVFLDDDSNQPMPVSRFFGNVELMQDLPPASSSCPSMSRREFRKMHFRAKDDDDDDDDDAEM
# UniProt Q8NHV1: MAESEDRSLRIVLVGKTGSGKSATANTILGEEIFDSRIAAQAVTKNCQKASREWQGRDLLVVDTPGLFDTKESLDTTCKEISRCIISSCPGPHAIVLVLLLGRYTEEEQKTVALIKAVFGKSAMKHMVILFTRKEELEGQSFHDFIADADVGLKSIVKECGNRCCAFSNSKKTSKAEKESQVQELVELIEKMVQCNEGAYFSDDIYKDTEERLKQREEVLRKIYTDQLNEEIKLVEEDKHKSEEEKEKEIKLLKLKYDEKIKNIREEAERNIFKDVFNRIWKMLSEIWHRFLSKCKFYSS
# UniProt Q8N3F8: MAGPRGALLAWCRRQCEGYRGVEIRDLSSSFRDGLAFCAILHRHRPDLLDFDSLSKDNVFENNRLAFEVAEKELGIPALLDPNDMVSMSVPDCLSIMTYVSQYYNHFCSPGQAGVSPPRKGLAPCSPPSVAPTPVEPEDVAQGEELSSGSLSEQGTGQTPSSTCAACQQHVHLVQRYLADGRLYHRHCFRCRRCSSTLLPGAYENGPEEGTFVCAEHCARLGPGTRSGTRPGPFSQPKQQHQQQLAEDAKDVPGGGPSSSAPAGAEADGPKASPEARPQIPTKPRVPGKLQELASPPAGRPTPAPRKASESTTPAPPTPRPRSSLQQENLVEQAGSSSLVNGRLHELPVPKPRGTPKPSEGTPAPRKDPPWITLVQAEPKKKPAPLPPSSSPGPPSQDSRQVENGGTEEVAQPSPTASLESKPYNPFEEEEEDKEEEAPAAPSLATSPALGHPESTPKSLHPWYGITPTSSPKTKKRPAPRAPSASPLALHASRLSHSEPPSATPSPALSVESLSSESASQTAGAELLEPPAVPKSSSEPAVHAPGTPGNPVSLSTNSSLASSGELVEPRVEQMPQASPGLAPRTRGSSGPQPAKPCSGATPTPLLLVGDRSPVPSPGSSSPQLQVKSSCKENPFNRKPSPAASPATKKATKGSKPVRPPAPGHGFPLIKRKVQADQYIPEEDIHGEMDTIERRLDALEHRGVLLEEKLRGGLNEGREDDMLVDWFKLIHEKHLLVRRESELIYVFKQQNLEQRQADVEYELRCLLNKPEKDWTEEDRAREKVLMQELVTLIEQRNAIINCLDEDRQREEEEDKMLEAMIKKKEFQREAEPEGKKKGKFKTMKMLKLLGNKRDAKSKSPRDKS
# UniProt Q8NFH5: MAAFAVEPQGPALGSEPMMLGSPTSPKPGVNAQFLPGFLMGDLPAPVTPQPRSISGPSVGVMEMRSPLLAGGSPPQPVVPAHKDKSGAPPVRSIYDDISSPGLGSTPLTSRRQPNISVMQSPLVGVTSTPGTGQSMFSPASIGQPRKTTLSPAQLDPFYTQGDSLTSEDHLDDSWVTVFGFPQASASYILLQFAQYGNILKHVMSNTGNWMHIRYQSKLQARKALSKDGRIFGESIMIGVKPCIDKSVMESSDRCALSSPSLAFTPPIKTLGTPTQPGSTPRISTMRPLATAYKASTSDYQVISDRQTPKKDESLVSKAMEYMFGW
# UniProt Q8N1G2: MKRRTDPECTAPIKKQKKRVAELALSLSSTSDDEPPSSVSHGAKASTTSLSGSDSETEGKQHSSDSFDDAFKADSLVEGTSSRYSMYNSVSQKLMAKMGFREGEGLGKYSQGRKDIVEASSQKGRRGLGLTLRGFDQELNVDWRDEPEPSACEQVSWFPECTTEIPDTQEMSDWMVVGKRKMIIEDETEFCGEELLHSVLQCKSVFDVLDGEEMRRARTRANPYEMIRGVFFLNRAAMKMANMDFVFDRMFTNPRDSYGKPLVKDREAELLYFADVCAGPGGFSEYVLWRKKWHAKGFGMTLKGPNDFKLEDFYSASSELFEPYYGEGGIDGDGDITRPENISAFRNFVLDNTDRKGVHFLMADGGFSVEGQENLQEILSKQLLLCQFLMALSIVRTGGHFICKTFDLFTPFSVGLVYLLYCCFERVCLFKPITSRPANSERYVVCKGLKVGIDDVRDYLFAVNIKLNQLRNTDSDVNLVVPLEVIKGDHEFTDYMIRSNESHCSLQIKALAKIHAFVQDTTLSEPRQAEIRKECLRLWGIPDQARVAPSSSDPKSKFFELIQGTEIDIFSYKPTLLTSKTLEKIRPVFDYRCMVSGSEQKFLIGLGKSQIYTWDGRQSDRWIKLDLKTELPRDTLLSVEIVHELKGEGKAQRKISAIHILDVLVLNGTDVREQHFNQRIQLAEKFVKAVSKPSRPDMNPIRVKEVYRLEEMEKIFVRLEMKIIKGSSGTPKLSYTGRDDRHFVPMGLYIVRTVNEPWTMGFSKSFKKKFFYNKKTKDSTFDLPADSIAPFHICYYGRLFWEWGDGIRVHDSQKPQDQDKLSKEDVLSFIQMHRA
# UniProt Q8TBZ6: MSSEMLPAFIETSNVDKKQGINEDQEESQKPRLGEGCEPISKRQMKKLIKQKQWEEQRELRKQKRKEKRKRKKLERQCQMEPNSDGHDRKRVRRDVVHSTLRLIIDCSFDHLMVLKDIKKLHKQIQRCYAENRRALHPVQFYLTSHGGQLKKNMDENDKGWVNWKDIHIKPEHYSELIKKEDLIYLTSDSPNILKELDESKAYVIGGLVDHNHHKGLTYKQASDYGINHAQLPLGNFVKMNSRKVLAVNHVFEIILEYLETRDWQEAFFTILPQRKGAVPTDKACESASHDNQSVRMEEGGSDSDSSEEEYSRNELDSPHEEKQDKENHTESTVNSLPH
# UniProt Q8NF37: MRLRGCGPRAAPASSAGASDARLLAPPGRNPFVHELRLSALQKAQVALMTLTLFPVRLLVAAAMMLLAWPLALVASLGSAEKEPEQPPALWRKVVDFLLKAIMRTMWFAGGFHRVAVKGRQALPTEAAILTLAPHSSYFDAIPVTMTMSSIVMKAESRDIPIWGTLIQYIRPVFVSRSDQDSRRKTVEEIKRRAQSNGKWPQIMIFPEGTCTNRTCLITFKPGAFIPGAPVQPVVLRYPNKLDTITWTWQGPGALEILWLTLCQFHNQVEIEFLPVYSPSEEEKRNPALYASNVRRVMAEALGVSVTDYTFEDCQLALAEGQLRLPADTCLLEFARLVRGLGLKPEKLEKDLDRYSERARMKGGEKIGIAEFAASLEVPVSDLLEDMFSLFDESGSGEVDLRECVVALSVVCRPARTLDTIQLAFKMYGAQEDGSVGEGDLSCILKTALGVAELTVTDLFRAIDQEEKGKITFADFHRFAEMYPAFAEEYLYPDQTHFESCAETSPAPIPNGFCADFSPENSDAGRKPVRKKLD
# UniProt Q8IUF8: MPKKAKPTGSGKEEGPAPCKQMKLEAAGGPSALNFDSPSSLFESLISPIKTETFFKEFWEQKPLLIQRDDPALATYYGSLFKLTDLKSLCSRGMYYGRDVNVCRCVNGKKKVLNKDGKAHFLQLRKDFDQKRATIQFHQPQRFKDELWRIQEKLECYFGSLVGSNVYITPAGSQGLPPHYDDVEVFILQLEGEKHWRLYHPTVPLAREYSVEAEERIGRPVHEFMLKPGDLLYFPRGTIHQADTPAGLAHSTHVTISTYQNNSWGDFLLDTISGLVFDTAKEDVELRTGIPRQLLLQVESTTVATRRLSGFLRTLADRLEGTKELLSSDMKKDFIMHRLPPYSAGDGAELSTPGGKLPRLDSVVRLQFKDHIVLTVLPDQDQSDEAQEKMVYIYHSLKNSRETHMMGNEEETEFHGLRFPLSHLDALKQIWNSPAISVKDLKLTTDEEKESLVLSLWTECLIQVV
# UniProt Q8N8N7: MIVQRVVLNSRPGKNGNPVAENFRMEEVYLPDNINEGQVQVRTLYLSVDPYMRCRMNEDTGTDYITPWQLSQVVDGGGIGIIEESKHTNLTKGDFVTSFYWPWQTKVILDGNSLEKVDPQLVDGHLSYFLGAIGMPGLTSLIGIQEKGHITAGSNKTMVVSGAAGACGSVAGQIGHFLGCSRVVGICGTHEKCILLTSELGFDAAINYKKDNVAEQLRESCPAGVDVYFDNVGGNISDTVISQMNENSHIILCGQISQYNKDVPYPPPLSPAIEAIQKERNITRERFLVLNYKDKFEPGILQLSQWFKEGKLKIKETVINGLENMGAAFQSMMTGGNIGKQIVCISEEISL
# UniProt Q8NBN3: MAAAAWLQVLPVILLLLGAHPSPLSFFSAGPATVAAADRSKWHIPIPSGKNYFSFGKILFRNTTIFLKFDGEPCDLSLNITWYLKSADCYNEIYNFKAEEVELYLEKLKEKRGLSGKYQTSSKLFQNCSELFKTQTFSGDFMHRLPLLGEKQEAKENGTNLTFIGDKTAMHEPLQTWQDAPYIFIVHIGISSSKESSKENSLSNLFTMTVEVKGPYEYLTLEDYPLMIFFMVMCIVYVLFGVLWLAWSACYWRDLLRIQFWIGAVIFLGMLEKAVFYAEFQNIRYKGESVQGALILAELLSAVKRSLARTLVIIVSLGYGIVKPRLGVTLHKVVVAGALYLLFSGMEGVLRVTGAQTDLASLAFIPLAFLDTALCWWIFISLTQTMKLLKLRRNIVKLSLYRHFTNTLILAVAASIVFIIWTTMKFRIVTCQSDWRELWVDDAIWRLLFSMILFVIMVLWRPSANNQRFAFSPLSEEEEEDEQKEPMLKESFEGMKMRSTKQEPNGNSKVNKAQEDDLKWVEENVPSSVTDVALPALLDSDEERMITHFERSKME
# UniProt Q8TAP6: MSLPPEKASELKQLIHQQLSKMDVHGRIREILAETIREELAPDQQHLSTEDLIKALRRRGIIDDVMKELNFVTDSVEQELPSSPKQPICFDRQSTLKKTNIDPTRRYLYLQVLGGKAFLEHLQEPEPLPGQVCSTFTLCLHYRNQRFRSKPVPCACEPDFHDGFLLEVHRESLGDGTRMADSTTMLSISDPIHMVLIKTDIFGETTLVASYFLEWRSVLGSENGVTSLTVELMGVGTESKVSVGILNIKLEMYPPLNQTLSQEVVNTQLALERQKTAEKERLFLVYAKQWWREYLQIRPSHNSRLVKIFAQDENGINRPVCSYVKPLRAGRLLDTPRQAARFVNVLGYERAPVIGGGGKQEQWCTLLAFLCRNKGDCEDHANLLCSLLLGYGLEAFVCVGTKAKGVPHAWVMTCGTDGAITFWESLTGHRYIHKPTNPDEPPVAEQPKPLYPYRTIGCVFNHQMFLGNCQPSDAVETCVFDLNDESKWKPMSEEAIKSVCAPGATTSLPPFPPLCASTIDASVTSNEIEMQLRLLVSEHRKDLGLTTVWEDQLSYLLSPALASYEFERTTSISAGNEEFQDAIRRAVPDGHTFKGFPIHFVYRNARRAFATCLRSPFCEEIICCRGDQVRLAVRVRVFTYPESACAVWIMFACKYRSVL
# UniProt Q8N766: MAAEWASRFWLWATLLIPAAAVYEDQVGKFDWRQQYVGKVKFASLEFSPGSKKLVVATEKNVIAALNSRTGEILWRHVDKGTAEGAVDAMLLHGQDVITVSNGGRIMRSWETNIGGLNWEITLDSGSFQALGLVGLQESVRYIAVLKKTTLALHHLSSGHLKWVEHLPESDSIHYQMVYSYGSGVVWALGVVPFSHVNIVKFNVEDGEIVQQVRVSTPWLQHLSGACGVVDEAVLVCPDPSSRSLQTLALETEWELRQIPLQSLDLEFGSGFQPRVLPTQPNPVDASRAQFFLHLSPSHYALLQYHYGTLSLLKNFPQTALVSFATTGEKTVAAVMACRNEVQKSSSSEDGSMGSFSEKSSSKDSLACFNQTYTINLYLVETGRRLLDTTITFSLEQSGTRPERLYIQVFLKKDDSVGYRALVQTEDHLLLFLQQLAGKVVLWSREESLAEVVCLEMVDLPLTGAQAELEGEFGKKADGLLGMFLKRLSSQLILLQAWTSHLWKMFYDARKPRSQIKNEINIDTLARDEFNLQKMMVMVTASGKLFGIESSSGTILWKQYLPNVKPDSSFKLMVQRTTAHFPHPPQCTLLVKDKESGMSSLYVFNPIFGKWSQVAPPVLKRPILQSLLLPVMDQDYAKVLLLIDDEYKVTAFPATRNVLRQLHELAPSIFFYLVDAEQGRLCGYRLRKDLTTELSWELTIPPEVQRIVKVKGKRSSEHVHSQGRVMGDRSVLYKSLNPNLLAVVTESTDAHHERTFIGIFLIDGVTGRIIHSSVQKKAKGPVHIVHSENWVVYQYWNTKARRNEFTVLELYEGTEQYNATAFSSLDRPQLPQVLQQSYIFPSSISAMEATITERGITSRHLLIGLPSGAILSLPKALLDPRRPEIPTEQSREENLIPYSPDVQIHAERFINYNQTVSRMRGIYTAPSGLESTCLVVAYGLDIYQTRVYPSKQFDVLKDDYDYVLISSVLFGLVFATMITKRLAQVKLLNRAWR
# ± gives the standard deviation of the averaged measurements. The list shows a part of the results.
# Compound: Nc1nc2c(ncn2[C@@H]2O[C@H](COP(=O)(O)OP(=O)(O)OP(=O)(O)O)[C@@H](O)[C@H]2O)c(=O)[nH]1 [guanosine triphosphate]
# Assay: NP40-soluble protein abundance relative to vehicle (solubility fold change) (ratio); higher = more soluble protein in presence of GTP
# Procedure, shortened: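 Each value is a fold change relative to the detergent-processed vehicle, calculated per replicate from vsn-normalised intensities. Jurkat crude lysate received eight concentrations (0.1 to 10 mM) for 10 min at room temperature and 3 min at 37 °C, then was solubilised in 0.8% NP40 with benzonase (60 min, 4 °C). The ultracentrifuged supernatant was TMT-labelled and run by LC-MS/MS in three independent experiments.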
Target,NP40-soluble protein abundance (concentration: 0.1mM),NP40-soluble protein abundance (concentration: 0.5mM),NP40-soluble protein abundance (concentration: 1mM),NP40-soluble protein abundance (concentration: 2mM),NP40-soluble protein abundance (concentration: 4mM),NP40-soluble protein abundance (concentration: 6mM),NP40-soluble protein abundance (concentration: 8mM),NP40-soluble protein abundance (concentration: 10mM)
UniProt Q86X10 and related entries,1.07 ± 0.11,1.12 ± 0.12,1.08 ± 0.098,1.12 ± 0.13,1.12 ± 0.18,1.08 ± 0.13,1.1 ± 0.14,1.06 ± 0.11
C1orf174 (UniProt Q8IYL3),0.964 ± 0.048,0.944 ± 0.066,1.16 ± 0.11,1.15 ± 0.11,1.22 ± 0.13,1.25 ± 0.099,1.24 ± 0.13,1.33 ± 0.057
UniProt Q8TCF1 and related entries,1.05 ± 0.13,1.02 ± 0.088,0.992 ± 0.11,1.06 ± 0.15,0.943 ± 0.11,0.967 ± 0.08,0.921 ± 0.038,0.987 ± 0.17
GIMAP7 (UniProt Q8NHV1),1 ± 0.026,1.03 ± 0.03,1.06 ± 0.16,1.02 ± 0.085,1.08 ± 0.16,1.07 ± 0.18,1.07 ± 0.19,1.06 ± 0.22
UniProt Q8NFC6,0.969 ± 0.048,0.992 ± 0.065,0.995 ± 0.052,0.965 ± 0.073,0.957 ± 0.056,0.973 ± 0.054,1.01 ± 0.078,1.01 ± 0.081
MICALL1 (UniProt Q8N3F8),1.02 ± 0.066,0.97 ± 0.063,0.962 ± 0.088,0.958 ± 0.1,0.92 ± 0.095,0.931 ± 0.13,0.922 ± 0.065,0.956 ± 0.11
UniProt Q8IY63 and related entries,0.94 ± 0.081,0.991 ± 0.041,1.03 ± 0.049,1.09 ± 0.1,1.11 ± 0.062,1.25 ± 0.06,1.2 ± 0.1,1.27 ± 0.12
UniProt Q8N163,0.965 ± 0.019,1.01 ± 0.057,1.07 ± 0.14,1.12 ± 0.19,1.16 ± 0.26,1.14 ± 0.23,1.14 ± 0.21,1.09 ± 0.21
ANKRD52 (UniProt Q8NB46),0.946 ± 0.12,1.08 ± 0.045,1 ± 0.049,1.03 ± 0.048,1.102 ± 0.011,0.948 ± 0.088,1.07 ± 0.054,1.01 ± 0.14
UniProt Q8TD16 and related entries,0.991 ± 0.02,0.94 ± 0.041,0.987 ± 0.029,0.954 ± 0.054,0.952 ± 0.049,0.938 ± 0.059,0.961 ± 0.055,0.967 ± 0.032
UniProt Q8NFH5 and related entries,0.99 ± 0.078,0.941 ± 0.046,1.04 ± 0.081,1.05 ± 0.13,1.07 ± 0.12,1.16 ± 0.13,1.24 ± 0.069,1.42 ± 0.14
UniProt Q8N1G2,1.09 ± 0.11,1.05 ± 0.076,0.95 ± 0.048,0.994 ± 0.071,0.985 ± 0.064,0.952 ± 0.035,0.938 ± 0.06,0.938 ± 0.062
RYBP (UniProt Q8N488),0.931 ± 0.16,0.909 ± 0.13,0.929 ± 0.11,0.952 ± 0.16,0.937 ± 0.13,0.948 ± 0.14,0.969 ± 0.13,1 ± 0.16
DCP1B (UniProt Q8IZD4),0.969 ± 0.036,0.92 ± 0.078,1.02 ± 0.032,0.959 ± 0.074,0.939 ± 0.067,0.993 ± 0.098,0.996 ± 0.048,1.02 ± 0.066
UniProt Q8IUR0 and related entries,1.03 ± 0.08,1.01 ± 0.1,0.936 ± 0.14,0.994 ± 0.16,1.01 ± 0.16,0.929 ± 0.2,0.901 ± 0.066,0.918 ± 0.11
UniProt Q8IUI8 and related entries,1.05 ± 0.019,0.9965 ± 0.0096,0.962 ± 0.029,0.97 ± 0.044,0.961 ± 0.067,0.901 ± 0.028,0.954 ± 0.077,0.957 ± 0.098
UniProt Q8TBZ6,1.01 ± 0.062,0.969 ± 0.066,1.02 ± 0.05,0.975 ± 0.067,0.999 ± 0.092,1.01 ± 0.099,1.1 ± 0.027,1.05 ± 0.078
THOC2 (UniProt Q8NI27),1.14 ± 0.054,1.33 ± 0.14,1.39 ± 0.15,1.72 ± 0.29,2.05 ± 0.4,2.18 ± 0.51,2.23 ± 0.54,2.16 ± 0.48
ASCC3 (UniProt Q8N3C0),1 ± 0.066,1.09 ± 0.026,1.06 ± 0.032,1.16 ± 0.091,1.32 ± 0.17,1.38 ± 0.22,1.53 ± 0.26,1.73 ± 0.27
RHOT2 (UniProt Q8IXI1),1.02 ± 0.03,1.04 ± 0.041,1 ± 0.047,1 ± 0.076,0.98 ± 0.02,0.988 ± 0.069,0.974 ± 0.039,0.973 ± 0.066
LPCAT1 (UniProt Q8NF37),1.06 ± 0.098,1.05 ± 0.13,1 ± 0.098,0.971 ± 0.065,0.966 ± 0.079,1.01 ± 0.13,0.999 ± 0.13,0.968 ± 0.12
PCYOX1L (UniProt Q8NBM8),0.998 ± 0.043,1.03 ± 0.08,0.943 ± 0.091,0.939 ± 0.073,0.903 ± 0.089,0.919 ± 0.083,0.898 ± 0.036,0.888 ± 0.062

Target,NP40-soluble protein abundance (concentration: 0.1mM),NP40-soluble protein abundance (concentration: 0.5mM),NP40-soluble protein abundance (concentration: 1mM),NP40-soluble protein abundance (concentration: 2mM),NP40-soluble protein abundance (concentration: 4mM),NP40-soluble protein abundance (concentration: 6mM),NP40-soluble protein abundance (concentration: 8mM),NP40-soluble protein abundance (concentration: 10mM)
UniProt Q8N7H5 and related entries,0.988 ± 0.052,1.02 ± 0.021,1.03 ± 0.038,1.02 ± 0.04,1.02 ± 0.037,1.03 ± 0.032,0.997 ± 0.081,0.902 ± 0.13
UniProt Q8IX90,0.962 ± 0.019,0.959 ± 0.025,0.99 ± 0.065,0.971 ± 0.079,0.95 ± 0.042,0.977 ± 0.041,0.989 ± 0.057,1.01 ± 0.058
UniProt Q8TCE6 and related entries,1.05 ± 0.026,1.03 ± 0.035,1.01 ± 0.015,1.05 ± 0.022,1.05 ± 0.025,1.03 ± 0.017,1.01 ± 0.039,0.998 ± 0.01
UniProt Q8IUF8 and related entries,1.08 ± 0.13,1.12 ± 0.15,1.04 ± 0.11,1.14 ± 0.11,1.13 ± 0.11,1.14 ± 0.12,1.14 ± 0.061,1.08 ± 0.077
ARFGAP1 (UniProt Q8N6T3),0.914 ± 0.068,0.887 ± 0.076,0.914 ± 0.085,0.872 ± 0.12,0.887 ± 0.11,0.865 ± 0.1,0.874 ± 0.091,0.874 ± 0.096
PTGR2 (UniProt Q8N8N7),0.991 ± 0.06,1.03 ± 0.091,0.974 ± 0.053,0.962 ± 0.067,0.918 ± 0.077,0.911 ± 0.064,0.909 ± 0.079,0.898 ± 0.08
UniProt Q8TEX9 and related entries,1.06 ± 0.027,1.02 ± 0.061,0.956 ± 0.034,0.999 ± 0.059,0.949 ± 0.026,0.941 ± 0.05,0.929 ± 0.029,0.9436 ± 0.0038
NKAP (UniProt Q8N5F7),0.935 ± 0.015,0.947 ± 0.038,1.1 ± 0.014,1.03 ± 0.07,1.03 ± 0.022,1.1 ± 0.012,1.1 ± 0.087,1.24 ± 0.088
UniProt Q8IWI9 and related entries,1.05 ± 0.081,1.07 ± 0.026,1.09 ± 0.033,1.08 ± 0.073,1.1 ± 0.11,1.11 ± 0.11,1.19 ± 0.12,1.15 ± 0.15
UniProt Q8NC51 and related entries,0.929 ± 0.049,0.937 ± 0.054,1.07 ± 0.041,1.08 ± 0.031,1.162 ± 0.0055,1.26 ± 0.067,1.3 ± 0.084,1.59 ± 0.06
UniProt Q8NC60,1 ± 0.022,1.05 ± 0.022,0.955 ± 0.048,0.884 ± 0.078,0.863 ± 0.067,0.907 ± 0.048,0.932 ± 0.024,0.861 ± 0.041
UniProt Q8TCC3 and related entries,1.04 ± 0.22,1.1 ± 0.26,1.52 ± 0.56,1.67 ± 0.58,1.71 ± 0.63,1.7 ± 0.61,1.66 ± 0.67,1.67 ± 0.71
UniProt Q8NBN3 and related entries,0.951 ± 0.097,0.941 ± 0.12,0.951 ± 0.098,0.911 ± 0.13,0.893 ± 0.12,0.872 ± 0.097,0.884 ± 0.14,0.918 ± 0.12
KRI1 (UniProt Q8N9T8),0.988 ± 0.043,0.975 ± 0.062,1.04 ± 0.045,1.03 ± 0.096,1.08 ± 0.064,1.13 ± 0.071,1.23 ± 0.085,1.23 ± 0.051
UniProt Q8N5N7 and related entries,1.16 ± 0.2,1.08 ± 0.17,1.41 ± 0.4,1.41 ± 0.36,1.43 ± 0.38,1.37 ± 0.35,1.29 ± 0.32,1.33 ± 0.41
NOC3L (UniProt Q8WTT2),1.03 ± 0.051,1.01 ± 0.028,1.11 ± 0.039,1.2 ± 0.047,1.31 ± 0.069,1.34 ± 0.064,1.35 ± 0.075,1.46 ± 0.087
NUDCD3 (UniProt Q8IVD9),0.934 ± 0.019,0.965 ± 0.017,0.913 ± 0.018,0.917 ± 0.012,0.879 ± 0.062,0.901 ± 0.031,0.899 ± 0.027,0.909 ± 0.037
UniProt Q8TAP6 and related entries,1.03 ± 0.063,1.05 ± 0.075,1 ± 0.04,1.01 ± 0.097,1.01 ± 0.072,0.962 ± 0.052,0.977 ± 0.086,0.972 ± 0.068
UniProt Q86YC3,1.13 ± 0.17,1.18 ± 0.26,1.13 ± 0.095,1.19 ± 0.13,1.15 ± 0.14,1.11 ± 0.18,1.12 ± 0.16,1.12 ± 0.097
UniProt Q8IVW6 and related entries,1.01 ± 0.058,1.06 ± 0.092,1.03 ± 0.11,1.07 ± 0.053,1.06 ± 0.05,0.965 ± 0.068,1.08 ± 0.049,0.9982 ± 0.0075
UniProt Q8N5U6 and related entries,1.02 ± 0.12,1.04 ± 0.099,1.02 ± 0.065,1.06 ± 0.012,1.08 ± 0.14,1.08 ± 0.071,1.1 ± 0.11,1.12 ± 0.089
UniProt Q8N766 and related entries,1.01 ± 0.055,1.03 ± 0.1,0.938 ± 0.046,0.964 ± 0.12,0.951 ± 0.098,0.926 ± 0.093,0.901 ± 0.015,0.897 ± 0.063

# Single records (already shown).
# NOC3L (UniProt Q8WTT2) is listed as NP40-soluble protein abundance (concentration: 0.1mM): 1.03 ± 0.051; NP40-soluble protein abundance (concentration: 0.5mM): 1.01 ± 0.028; NP40-soluble protein abundance (concentration: 1mM): 1.11 ± 0.039; NP40-soluble protein abundance (concentration: 2mM): 1.2 ± 0.047; NP40-soluble protein abundance (concentration: 4mM): 1.31 ± 0.069; NP40-soluble protein abundance (concentration: 6mM): 1.34 ± 0.064; NP40-soluble protein abundance (concentration: 8mM): 1.35 ± 0.075; NP40-soluble protein abundance (concentration: 10mM): 1.46 ± 0.087
# PTGR2 (UniProt Q8N8N7) is listed as NP40-soluble protein abundance (concentration: 0.1mM): 0.991 ± 0.06; NP40-soluble protein abundance (concentration: 0.5mM): 1.03 ± 0.091; NP40-soluble protein abundance (concentration: 1mM): 0.974 ± 0.053; NP40-soluble protein abundance (concentration: 2mM): 0.962 ± 0.067; NP40-soluble protein abundance (concentration: 4mM): 0.918 ± 0.077; NP40-soluble protein abundance (concentration: 6mM): 0.911 ± 0.064; NP40-soluble protein abundance (concentration: 8mM): 0.909 ± 0.079; NP40-soluble protein abundance (concentration: 10mM): 0.898 ± 0.08
# NUDCD3 (UniProt Q8IVD9) is listed as NP40-soluble protein abundance (concentration: 0.1mM): 0.934 ± 0.019; NP40-soluble protein abundance (concentration: 0.5mM): 0.965 ± 0.017; NP40-soluble protein abundance (concentration: 1mM): 0.913 ± 0.018; NP40-soluble protein abundance (concentration: 2mM): 0.917 ± 0.012; NP40-soluble protein abundance (concentration: 4mM): 0.879 ± 0.062; NP40-soluble protein abundance (concentration: 6mM): 0.901 ± 0.031; NP40-soluble protein abundance (concentration: 8mM): 0.899 ± 0.027; NP40-soluble protein abundance (concentration: 10mM): 0.909 ± 0.037
